# Measured values reported in PMC12869240.
# Chains of the proteins cited; added tags and fusions are not shown. Residues count along the entry.
# UniProt Q9Y4C0, residues 28-1643: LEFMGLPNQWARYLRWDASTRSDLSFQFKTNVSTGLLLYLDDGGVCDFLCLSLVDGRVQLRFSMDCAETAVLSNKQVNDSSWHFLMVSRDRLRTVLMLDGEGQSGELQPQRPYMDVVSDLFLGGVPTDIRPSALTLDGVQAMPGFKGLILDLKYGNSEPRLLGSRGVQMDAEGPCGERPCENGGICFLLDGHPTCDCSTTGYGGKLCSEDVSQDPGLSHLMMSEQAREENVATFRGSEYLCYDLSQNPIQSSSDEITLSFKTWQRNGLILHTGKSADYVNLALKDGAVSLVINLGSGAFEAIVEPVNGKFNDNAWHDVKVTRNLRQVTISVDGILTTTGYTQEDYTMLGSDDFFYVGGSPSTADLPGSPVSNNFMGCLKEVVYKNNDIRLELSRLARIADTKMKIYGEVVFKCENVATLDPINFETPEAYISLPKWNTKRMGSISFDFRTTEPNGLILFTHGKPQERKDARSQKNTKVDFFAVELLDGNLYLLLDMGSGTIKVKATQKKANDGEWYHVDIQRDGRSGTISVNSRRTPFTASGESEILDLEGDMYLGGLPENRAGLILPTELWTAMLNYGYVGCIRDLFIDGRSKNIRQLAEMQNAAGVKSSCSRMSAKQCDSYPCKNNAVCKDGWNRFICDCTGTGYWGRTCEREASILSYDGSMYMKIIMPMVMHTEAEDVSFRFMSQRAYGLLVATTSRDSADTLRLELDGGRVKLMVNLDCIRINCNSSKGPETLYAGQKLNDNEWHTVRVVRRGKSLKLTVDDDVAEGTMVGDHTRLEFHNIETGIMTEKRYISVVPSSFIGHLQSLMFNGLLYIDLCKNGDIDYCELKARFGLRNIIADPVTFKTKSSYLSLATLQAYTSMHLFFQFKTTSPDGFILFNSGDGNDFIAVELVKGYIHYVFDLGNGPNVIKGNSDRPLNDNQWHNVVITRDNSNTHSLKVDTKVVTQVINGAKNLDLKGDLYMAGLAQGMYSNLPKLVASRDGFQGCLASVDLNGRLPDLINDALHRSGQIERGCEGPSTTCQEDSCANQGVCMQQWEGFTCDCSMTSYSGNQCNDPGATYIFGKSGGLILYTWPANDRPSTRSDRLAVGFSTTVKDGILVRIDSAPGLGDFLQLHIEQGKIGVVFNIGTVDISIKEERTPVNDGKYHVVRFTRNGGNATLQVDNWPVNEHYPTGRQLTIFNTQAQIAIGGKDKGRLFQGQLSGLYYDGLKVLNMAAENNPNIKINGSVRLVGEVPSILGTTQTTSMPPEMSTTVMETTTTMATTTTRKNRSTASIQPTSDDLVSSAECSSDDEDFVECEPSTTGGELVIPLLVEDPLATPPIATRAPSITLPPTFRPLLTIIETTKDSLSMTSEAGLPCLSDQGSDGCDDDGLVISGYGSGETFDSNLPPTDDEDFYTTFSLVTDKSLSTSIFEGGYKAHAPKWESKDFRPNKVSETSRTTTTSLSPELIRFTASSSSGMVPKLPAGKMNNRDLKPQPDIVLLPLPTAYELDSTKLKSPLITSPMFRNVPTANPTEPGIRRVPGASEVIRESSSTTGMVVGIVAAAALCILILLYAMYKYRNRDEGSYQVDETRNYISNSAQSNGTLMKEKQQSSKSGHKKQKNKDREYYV
# UniProt Q15418: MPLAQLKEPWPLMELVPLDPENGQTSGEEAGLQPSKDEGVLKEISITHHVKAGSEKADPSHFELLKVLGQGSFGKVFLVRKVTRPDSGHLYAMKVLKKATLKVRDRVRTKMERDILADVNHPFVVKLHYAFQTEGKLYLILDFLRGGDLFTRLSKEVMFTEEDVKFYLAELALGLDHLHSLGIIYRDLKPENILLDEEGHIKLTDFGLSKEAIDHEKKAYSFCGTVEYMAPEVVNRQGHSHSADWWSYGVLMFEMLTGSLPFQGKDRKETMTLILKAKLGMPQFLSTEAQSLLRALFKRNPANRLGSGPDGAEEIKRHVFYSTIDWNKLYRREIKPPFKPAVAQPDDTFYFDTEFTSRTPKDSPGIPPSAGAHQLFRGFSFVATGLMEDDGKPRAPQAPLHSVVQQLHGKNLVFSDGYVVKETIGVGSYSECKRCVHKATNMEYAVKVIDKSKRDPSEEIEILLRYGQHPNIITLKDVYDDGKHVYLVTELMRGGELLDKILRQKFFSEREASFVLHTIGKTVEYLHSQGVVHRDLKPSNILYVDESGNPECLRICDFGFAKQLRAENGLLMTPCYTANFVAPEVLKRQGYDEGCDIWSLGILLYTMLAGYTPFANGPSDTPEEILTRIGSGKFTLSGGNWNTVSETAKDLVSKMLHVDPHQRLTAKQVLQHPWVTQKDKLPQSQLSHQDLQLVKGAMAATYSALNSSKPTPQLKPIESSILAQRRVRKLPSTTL
# UniProt P63208: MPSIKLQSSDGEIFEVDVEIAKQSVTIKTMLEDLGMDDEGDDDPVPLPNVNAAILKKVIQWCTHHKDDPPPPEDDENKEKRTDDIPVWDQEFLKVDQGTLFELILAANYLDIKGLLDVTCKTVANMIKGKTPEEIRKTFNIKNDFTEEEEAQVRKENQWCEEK
# Tests used:
# Flag-NRXN3 in ICC cells = Flag-NRXN3 in ICC cells (UniProt Q9Y4C0); assay: affinity purification with mass spectrometry; IP from Flag-NRXN3-overexpressing HuCCT1 cells with anti-Flag and anti-caspase-3 antibodies, normal IgG as negative control; LC-MS/MS
# [1] = biological target: T1, endogenous caspase-3 in ICC cells (human (endogenous in HuCCT1 and HuCCT1-R)) (UniProt P42574); assay: as above
# T1 sequence: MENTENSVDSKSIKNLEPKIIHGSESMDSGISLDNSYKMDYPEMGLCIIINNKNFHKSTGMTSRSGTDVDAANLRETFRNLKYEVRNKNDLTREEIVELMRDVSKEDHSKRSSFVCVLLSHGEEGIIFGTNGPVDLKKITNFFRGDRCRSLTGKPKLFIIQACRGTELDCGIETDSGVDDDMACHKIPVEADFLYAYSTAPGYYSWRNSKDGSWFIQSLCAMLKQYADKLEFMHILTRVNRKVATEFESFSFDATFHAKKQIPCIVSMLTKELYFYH
binding (Flag-NRXN3 in ICC cells),binding [1],Substance
binds,,endogenous RSK1 in ICC cells (from UniProt Q15418 1-735) (enzyme)
,binds,endogenous Skp1 in HuCCT1 (from UniProt P63208 1-163)

# These are yes or no findings as the source states them, for the method shown. In cells and extracts the contact can be indirect. A yes stands for co-enrichment or nearness to the bait. Other partners may have been found.
